{
  "sequences": {"note": "Sequences of proteins named here, by UniProt entry; tags and fusion partners are left off. Residues count along the entry.", "UniProt P67809, 1-279, stated change not applied": "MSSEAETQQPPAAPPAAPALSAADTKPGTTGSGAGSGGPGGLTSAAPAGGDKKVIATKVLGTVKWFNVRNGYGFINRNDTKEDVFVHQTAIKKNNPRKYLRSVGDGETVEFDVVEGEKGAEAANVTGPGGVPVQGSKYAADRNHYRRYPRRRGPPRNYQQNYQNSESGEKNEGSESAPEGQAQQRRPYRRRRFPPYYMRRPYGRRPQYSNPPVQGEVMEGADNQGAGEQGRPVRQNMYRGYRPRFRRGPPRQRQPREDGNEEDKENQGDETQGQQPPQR", "UniProt P67809, 1-184, stated change not applied": "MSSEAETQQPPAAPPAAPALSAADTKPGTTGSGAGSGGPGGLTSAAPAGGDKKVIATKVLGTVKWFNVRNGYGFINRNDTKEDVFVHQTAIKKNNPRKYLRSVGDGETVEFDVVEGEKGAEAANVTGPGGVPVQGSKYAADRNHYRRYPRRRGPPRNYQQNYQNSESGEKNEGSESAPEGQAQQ"},
  "source": "paper PMC9253770",
  "assay_in_all_cases": "fluorescence anisotropy",
  "key": {"YB-1(FL)": {"molecular_target": "YB-1(FL) (UniProt P67809)", "settings": "EC50, lower end of stated range 1100-3100 nM; phosphate on the 17-mer (printed as 5'-pAAACGTCAGGGTCTTCC); 50 mM Tris-HCl pH 8.0, 40 mM NaCl, 1 mM DTT, 100 ug/ml BSA, 50 nM FAM-DNA, 25 C (anisotropy); recombinant protein; residues 1-324; label: 5'-FAM on strand 1"}, "YB-1 (Δ1)": {"molecular_target": "YB-1 (Δ1) (UniProt P67809)", "settings": "EC50 within 1100-3100 nM, exact value only in figure; phosphate on the 17-mer (printed as 5'-pAAACGTCAGGGTCTTCC); 50 mM Tris-HCl pH 8.0, 40 mM NaCl, 1 mM DTT, 100 ug/ml BSA, 50 nM FAM-DNA, 25 C (anisotropy); recombinant protein; label: 5'-FAM on strand 1"}, "YB-1 (Δ1-2-3)": {"molecular_target": "YB-1 (Δ1-2-3) (UniProt P67809)", "settings": "EC50, upper end of stated range, ~3-fold weaker than FL; phosphate on the 17-mer (printed as 5'-pAAACGTCAGGGTCTTCC); 50 mM Tris-HCl pH 8.0, 40 mM NaCl, 1 mM DTT, 100 ug/ml BSA, 50 nM FAM-DNA, 25 C (anisotropy); recombinant protein; label: 5'-FAM on strand 1"}},
  "note": "For at least one entry, the source does not settle the construct or the ends of the probe. For part of these data: At least one verdict was read from the data and is not stated in words by the source.",
  "data": [
    {"sequence": "CCGCTATTTCAACCCTTTGCAGTCCCAGAAGG / GGGTTGAAATAGCGG / CCTTCTGGGACTGCAAA [Nick (FAM-labeled nicked DNA duplex)]", "values": [
      {"measurement": "half-maximal binding", "setting": "YB-1(FL)", "result": 1100, "unit": "nM"},
      {"measurement": "binding result", "setting": "YB-1 (Δ1)", "result": "binds"},
      {"measurement": "half-maximal binding", "setting": "YB-1 (Δ1-2-3)", "result": 3.1, "unit": "µM"}
    ]}
  ]
}
